According to patent publication US20160207996A1 (ARGEN X N V, published 2016):
Changes are numbered by the printed parent chain. These are yes or no findings as the source states them, for the method shown. Some results given as binding are weak or reduced against the parent protein; the word gives no strength. One block for each binder: values may come before it.

Chains of the proteins cited; added tags and fusions are not shown. Lines headed by an entry give the natural chain unless they say otherwise; changes in a name come on top. Residues count along the entry.
UniProt P47871: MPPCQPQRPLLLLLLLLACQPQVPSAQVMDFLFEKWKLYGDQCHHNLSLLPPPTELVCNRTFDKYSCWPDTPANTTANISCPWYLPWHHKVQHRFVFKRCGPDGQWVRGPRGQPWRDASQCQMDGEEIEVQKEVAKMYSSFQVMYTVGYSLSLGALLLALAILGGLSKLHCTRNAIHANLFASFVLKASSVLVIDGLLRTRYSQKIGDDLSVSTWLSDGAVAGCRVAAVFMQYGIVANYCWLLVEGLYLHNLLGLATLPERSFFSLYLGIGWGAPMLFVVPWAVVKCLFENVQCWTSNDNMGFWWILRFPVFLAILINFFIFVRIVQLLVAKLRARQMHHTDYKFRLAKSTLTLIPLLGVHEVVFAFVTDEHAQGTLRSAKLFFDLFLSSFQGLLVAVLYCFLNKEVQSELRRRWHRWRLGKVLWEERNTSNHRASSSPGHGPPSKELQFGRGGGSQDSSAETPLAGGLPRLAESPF
glucagon receptor (GCGR), full length: residues 26-477 of P47871

Experiments:
[1] = molecular target: glucagon receptor (GCGR), full length (human) (UniProt P47871); assay: flow cytometry on transfected HEK293E cells, 1 µg/ml, PE mean; second bar with excess Nt-GCGR
[2] = molecular target: glucagon receptor (GCGR), full length (human) (UniProt P47871); assay: FACS on GCGR cells in competition with Nt-GCGR-Fc
[3] = molecular target: T1, hNav1.7-loopC3-llama Fc (human); assay: binding ELISA on coated loop-llama Fc chimera (20 ng/well), OD620
T1 construct: whole entry: loop C3, linker, llama Fc; also called hNav1.7-loopC3-llfc
T1 chain: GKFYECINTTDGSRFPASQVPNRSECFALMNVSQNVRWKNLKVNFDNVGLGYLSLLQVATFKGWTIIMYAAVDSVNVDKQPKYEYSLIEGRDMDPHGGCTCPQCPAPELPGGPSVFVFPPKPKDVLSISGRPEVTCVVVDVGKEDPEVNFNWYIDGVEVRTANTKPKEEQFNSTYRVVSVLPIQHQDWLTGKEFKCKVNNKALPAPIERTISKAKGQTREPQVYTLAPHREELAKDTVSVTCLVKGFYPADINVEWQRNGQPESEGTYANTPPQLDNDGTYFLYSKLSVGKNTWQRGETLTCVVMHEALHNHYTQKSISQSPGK
Procedure: For all DNA-immunization derived mAbs the binding affinity for the various hNav1.7-loop-llama Fc chimeras was tested in a binding ELISA. Therefore, a Maxisorp plate (Nunc) was coated with 20 ng/well of hNav1.7-loopA3-llama Fc, hNav1.7-loopB1-C1-D1-llama Fc or hNav1.7-loopC3-llama Fc. Remainder of the ELISA setup is as described above. […] Only at very high concentration minor cross-reactivity is observed for some clones.

[4] = molecular target: glucagon receptor (GCGR), full length (human) (UniProt P47871); assay: mAb binding ELISA, lipoparticles coated at 10 U/well, mAb 1 µg/ml, A450 [upper chart]
[5] = molecular target: glucagon receptor (GCGR), full length (human) (UniProt P47871); assay: flow cytometry on CHO cells overexpressing GCGR, PE-mean [panel Binding mAb 6A1]
[6] = molecular target: glucagon receptor (GCGR), full length (human) (UniProt P47871); assay: mAb binding ELISA on coated GCGR lipoparticles, mAb 1 µg/ml
[7] = molecular target: glucagon receptor (GCGR), full length (human) (UniProt P47871); assay: flow cytometry on CHO-GCGR cells
[8] = molecular target: glucagon receptor (GCGR), full length (human) (UniProt P47871); assay: mAb binding ELISA, lipoparticles coated at 10 U/well, mAb 1 µg/ml, A450 [lower chart]
[9] = molecular target: T2, Nt-GCGR-hFc (human, UniProt P47871 26-136); assay: flow cytometry on HEK293E-GCGR cells with competition by soluble Nt-domain
T2 construct: domain: N-terminal domain; also called Nt-GCGR-Fc; recombinant N-terminal domain of GCGR; not shown: hFc

[10] = molecular target: T2, Nt-GCGR-hFc; assay: mAb binding ELISA on coated Nt-GCGR-hFc, mAb 1 µg/ml
[11] = molecular target: glucagon receptor (GCGR), full length (human) (UniProt P47871); assay: flow cytometry on HEK293E-GCGR cells
[12] = molecular target: T2, Nt-GCGR-hFc; assay: ELISA with a titration of biotin-Nt-GCGR (x axis) against the mAbs, OD620
[13] = molecular target: glucagon receptor (GCGR), full length (human) (UniProt P47871); assay: flow cytometry on HEK293E-GCGR cells, mAb pre-incubated with 20-fold excess of Nt-domain
[14] = molecular target: glucagon receptor (GCGR), full length (human) (UniProt P47871); assay: flow cytometry on CHO cells overexpressing GCGR, PE-mean [panel Binding mAb 6A5]

binding [1]: binds | binding [2]: binds
B1: mAb 9C8 (GCGR) (antibody, V domains shown)
VH: QVQLVESGGGLVQPGGSLRLSCAASGFTFSSNAMSWVRQAPGKGLEWVSAISASGATTAYADSVRGRFTISRDNAKNTLYLQMNSLKPDDTAVYYCAKSEGATWYYAYWGQGTQVTVSS
VL: QPVLNQPSALSVTLGQTAKITCQGGSLGSSYAHWYQQKPGQAPVLVIYADNRRPSGTPERFSGSNSGNTATLTISGAQAEDEADYYCQVWDSSANAVFGGGTHLTVLG

B2: 9C3 (antibody, V domains shown)
VH: EVQLVQPGAELRNPGTSVKVSCKTSGYYFTSSDIQWVRQAPAQGLEWMGRIDPEDGATKYAPKFQGRVTFTADTFTRTAYVELSNLRSDDTAVYYCMTAGGEYWGKGTLVTVSS
VL: QPVLNQPSALSVSLGQTARITCQGGDFRNYYNNWYQQKPGQAPVLVIYEDSERPSGIPERFSGSSSGDTVILTVSRVQADDEADYYCQSSDSTDNAVFGGGTHLTVL
notes: chimeric llama-human, human IgG1 constant domains
binding [3]: no binding (tested: about 66 nM)

binding [1]: binds | binding [4]: binds | binding [5]: binds | binding [6]: binds | binding [7]: binds
B3: mAb 6A1 (antibody, IgG1, V domains shown)
VH: EVQLVESGGGLVQPGGSLRLSCAASGFTFSRNAMTWVRQAPGKGLEWVSAISSTGNSITEADSVKGRFTISRDNAKNMLYLQMNSLKPEDTAVYYCAKLGGDTWYMEYWGQGTQVTVSS
VL: SYELTQSPSMSVALRQTAKITCGGNNIGSKSAQWYQQKPGQAPVLVIYADNRRPSGIPERFSGSNSGNTATLTISGAQAEDEADYYCQVWDSSANAVFGRGTHLTVLG

binding [6]: binds | binding [8]: binds
B4: mAb 6B7 (antibody, IgG1, V domains shown)
VH: B3 VH with E1Q, V2L, R31S
VL: SSALTQPSAVSVSLGQTARITCQGDNFGSIDPHWYQQKPGQDPVVVIYQYNNRPSGIPERFSGLKSGNTATLIISGAQAEDEADYYCQLWDSRAKAVFGGGTHLTVLG

binding [6]: binds | binding [8]: binds
B5: mAb 6D8 (antibody, IgG1, V domains shown)
VH: B3 VH with E1Q, V2L, R31S
VL: SYELTQSPSVSVALRQTAKITCGGNGIGSKIVHWYQQKPGQAPVLVIYADVRRPSEIPERFSGSNSGDTATLTVSGAQAEDEADYYCQVWDSSANAAVFGGGTHLTVLG

binding [1]: binds | binding [4]: binds | binding [9]: binds | binding [10]: binds | binding [6]: binds | binding [11]: binds | binding [12]: binds
B6: mAb 6B3 (antibody, IgG1, V domains shown)
VH: QLQVVESGGGLVQPGGSLRLSCAASGFTFSTYVMSWVRQAPGKGLEWVSGINSGGGSTSYADSVKGRFTISRDNAKNTLYLQMNSLKPEDTAVYYCAKVGDGSAWYYYYGMDYWGQGTQVTVSS
VL: SSALTQPSAVSVSLGQTARITCQGGNLDGYYHAWYQQKPGQAPVQVIFGNNNRPSGIPERFSGSSSGGTTTLTISGAQAEDEADYYCQSYENSGYNIVFGGGTHLTVLG

binding [1]: binds | binding [4]: binds | binding [6]: binds | binding [13]: binds | binding [14]: binds
B7: mAb 6A5 (antibody, IgG1, V domains shown)
VH: EVQLQESGGGSVQPGGSLRLSCAASGFTFSANAMTWVRQAPGKGLEWVSAISGTGASTSYADSVKGRFTVSRDNAKNTLYLQVNNLKPEDTAVYRCAKLGGDTWYMEYWAKGTLVTVSS
VL: SYELTQSPSVSVALRQTAKITCGGDNIGSKYVNWYQQKPSQTPVLVIYKDSNRPSGIPERFSGSNSGNTAALTISGAQAEDEADYYCQVWDGSAAVFGGGTHLSVLG

binding [1]: binds | binding [2]: binds
B8: mAb 9A4 (GCGR) (antibody, V domains shown)
VH: B1 VH
VL: B7 VL with T17A, G28A, S40G, T42A, N52S, A71T, I74V, G92N, S104T

B9: 9A1 (antibody, V domains shown)
VH: EVQLVQPGAELRNPGASVKVSCKASGDTFTDYYIHWVRQAPGQGLEWMGRIDPEDGGTKYTQKFQGRVTFTADTSTSTVYLELDSLRSEDTAVYYCVGDMDYWGKGTLVTVSS
VL: QTVVTQEPSLSVSPGGTVTLTCGLSSGSVTFGNYPSWYQQTPGQAPRTLIYTTNSRHSGVPSRFSGSISGNKATLTISGAQPEDEADFYCALSRVSGTYGTVFGGGTHLTVL
notes: as for B2
binding [3]: no binding (tested: about 66 nM)

binding [3]: no binding (tested: about 66 nM)
B10: 9C12 (antibody, V domains shown)
VH: EVQLVQPGAEVRRPGAAVKVSCKASGFALISSYIDWVRQAPGQGLEWMGRIDPEDGGTSYAQKFQGRVTVTVDTATSTVYVELSSLRSDDTGVYFCMVGDSGYWGQGTQVTVSS
VL: ATMLTQSPASLSVVPGESASISCKASQSLVHSDGKTYLYWLLQKPGQSPQRLIYQVSNRGSGVPDRFTGSGSGTDFTLKISGVKAEDAGVYYCAQHTYYPPSFGSGTRLEIK
notes: as for B2

binding [3]: no binding (tested: about 66 nM)
B11: 9F10 (antibody, human IgG1, V domains shown)
VH: B10 VH
VL: ATMLTQSPGSLSVGPGESASISCKAGQSLTHPNGKTYLSWLLQKPGQSPRRLIYETSNRDPGVPDRFTGSGSGTDFTLRIVGVTVEDAGVYYCAQTTYFPIAFGQGTKVELK

B12: 9G6 (antibody, human IgG1, V domains shown)
VH: EVQLVQPGAELTKPGASVKVSCNTSGYTFTGYYIDWVRQVPGEGLEWMGRIDPEDGDTKYAQKFQGRVTITADTSTTTAYMELSSLRSEDTAVYYCSLGVDYWGQGTQVTVSS
VL: ATMLTQSPGSLSVVPGESASISCKTSQSLVHSDGKTYLYWLLQKPGQSPQRLIYQVSNRDSGVPDRFTGSGSGTDFTLKISGVKAEDAGVYYCAQTTYDPVTFGQGTKVELK
binding [3]: no binding (tested: about 66 nM)
